This note sets out measurements from article PMC10329682.

By UniProt entry, the sequences of proteins in these tests, tags left out. Where a name states a change or a piece, a line headed by the entry shows the natural chain unless it says otherwise.
UniProt Q16763: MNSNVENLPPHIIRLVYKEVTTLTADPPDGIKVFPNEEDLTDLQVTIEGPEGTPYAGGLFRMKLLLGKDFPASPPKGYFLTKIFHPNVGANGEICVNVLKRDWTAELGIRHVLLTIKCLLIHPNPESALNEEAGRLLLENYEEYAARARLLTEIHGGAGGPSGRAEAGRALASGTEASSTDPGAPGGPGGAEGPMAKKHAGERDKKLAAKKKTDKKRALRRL
UniProt P19474: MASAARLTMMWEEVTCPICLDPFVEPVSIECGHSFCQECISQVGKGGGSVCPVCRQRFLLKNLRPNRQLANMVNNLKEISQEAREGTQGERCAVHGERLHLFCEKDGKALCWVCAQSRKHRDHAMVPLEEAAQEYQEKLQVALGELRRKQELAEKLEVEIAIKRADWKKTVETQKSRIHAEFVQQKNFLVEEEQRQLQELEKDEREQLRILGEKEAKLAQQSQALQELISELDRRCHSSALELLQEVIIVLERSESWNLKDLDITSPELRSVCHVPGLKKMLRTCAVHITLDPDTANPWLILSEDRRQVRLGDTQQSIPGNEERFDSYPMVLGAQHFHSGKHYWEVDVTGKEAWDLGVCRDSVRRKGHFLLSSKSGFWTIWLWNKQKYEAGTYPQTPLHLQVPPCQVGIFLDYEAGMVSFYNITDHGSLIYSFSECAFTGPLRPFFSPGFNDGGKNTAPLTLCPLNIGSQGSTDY

Results are given in words; binding and its absence hold for the method and conditions named. In cells and extracts the contact can be indirect. A yes stands for co-enrichment or nearness to the bait. Other partners may have been found.

The test deals with Ubiquitin-conjugating enzyme E2S (human (endogenous in T24 and UM-UC-3)) (UniProt Q16763). Kind of test: affinity purification with mass spectrometry; immunoprecipitation with a UBE2S antibody (2 ug, overnight at 4 C) from lysates of wild-type T24 and UM-UC-3 cells, Protein A/G magnetic beads 2 h at room temperature, mass spectrometry; a protein with >=2 unique peptides considered significant.

Take “tripartite motif containing 21 (from UniProt P19474 1-475) (enzyme)”: the binding result is given as “binds”.

B1: lipoma preferred partner (protein, UniProt Q93052 1-612)
chain: MSHPSWLPPKSTGEPLGHVPARMETTHSFGNPSISVSTQQPPKKFAPVVAPKPKYNPYKQPGGEGDFLPPPPPPLDDSSALPSISGNFPPPPPLDEEAFKVQGNPGGKTLEERRSSLDAEIDSLTSILADLECSSPYKPRPPQSSTGSTASPPVSTPVTGHKRMVIPNQPPLTATKKSTLKPQPAPQAGPIPVAPIGTLKPQPQPVPASYTTASTSSRPTFNVQVKSAQPSPHYMAAPSSGQIYGSGPQGYNTQPVPVSGQCPPPSTRGGMDYAYIPPPGLQPEPGYGYAPNQGRYYEGYYAAGPGYGGRNDSDPTYGQQGHPNTWKREPGYTPPGAGNQNPPGMYPVTGPKKTYITDPVSAPCAPPLQPKGGHSGQLGPSSVAPSFRPEDELEHLTKKMLYDMENPPADEYFGRCARCGENVVGEGTGCTAMDQVFHVDCFTCIICNNKLRGQPFYAVEKKAYCEPCYINTLEQCNVCSKPIMERILRATGKAYHPHCFTCVMCHRSLDGIPFTVDAGGLIHCIEDFHKKFAPRCSVCKEPIMPAPGQEETVRIVALDRDFHVHCYRCEDCGGLLSEGDNQGCYPLDGHILCKTCNSARIRVLTAKASTDL
On to B1, for which the binding result is “binds”.
